Reference: patent US20160115200A1 (XIGEN INFLAMMATION LTD., priority 2013, published 2016)
Square brackets hold non-standard residues; d marks the D form.

Assay: general procedure: Fmoc solid-phase peptide synthesis; Fmoc-Rink amide-MBHA resin
Details: whole synthesis, scale 0.7 mmol, acetate

With “H-[dR]KKR[dR]QRR[dR]RP[dK]RP[dA]TLNL[dF]-NH2 (SMILES CC(C)C[C@H](NC(=O)[C@H](CC(N)=O)NC(=O)[C@H](CC(C)C)NC(=O)[C@@H](NC(=O)[C@@H](C)NC(=O)[C@@H]1CCCN1C(=O)[C@H](CCCNC(=N)N)NC(=O)[C@@H](CCCCN)NC(=O)[C@@H]1CCCN1C(=O)[C@H](CCCNC(=N)N)NC(=O)[C@@H](CCCNC(=N)N)NC(=O)[C@H](CCCNC(=N)N)NC(=O)[C@H](CCCNC(=N)N)NC(=O)[C@H](CCC(N)=O)NC(=O)[C@@H](CCCNC(=N)N)NC(=O)[C@H](CCCNC(=N)N)NC(=O)[C@H](CCCCN)NC(=O)[C@H](CCCCN)NC(=O)[C@H](N)CCCNC(=N)N)[C@@H](C)O)C(=O)N[C@H](Cc1ccccc1)C(N)=O)” the “final purity (method not given)” value was “≧95%”.
